# PubChem BioAssay (NCATS)
# Inconclusive means that the source gave no clear call. Such entries were picked first, then a sample of the others. For part of these data: Potencies beside an inconclusive call are fits to weak or partial responses and may not hold up. The source made the active and inactive calls. Calls come from the whole dose curve; as a rule, active = well fitted cell-killing curve with a large enough effect; inconclusive = small, poorly fitted or top-dose-only effect, or effect the other way; inactive = no such curve, though single readings can be large or run the other way.
# Experiments:
# [1] = Quantitative High-Throughput drug screen in 47 multiple myeloma cell lines against the NCATS MIPE library collection: OCIMY7_PLB cell viability assay (AID 1918987); conditions: OCI-MY7 myeloma viability, CellTiter-Glo ATP, 48 h; viability (% of DMSO): at 45.8 µM (top of the series); note: nearly all actives have a fitted effect of over 65% in size
# Outline: (§1)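 Cells were exposed to library compounds for 48 hours, after which ATP was measured by CellTiter-Glo. Signal was taken as median relative luminescence units.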
# [2] = Quantitative High-Throughput drug screen in 47 multiple myeloma cell lines against the NCATS MIPE library collection: SKMM1_PLB cell viability assay (AID 1919863); conditions: SKMM1 myeloma viability, CellTiter-Glo ATP, 48 h; viability: stronger effect = lower value; note: nearly all actives have a fitted effect of over 35% in size
# Outline: as §1
# [3] = Quantitative High-Throughput drug screen in 47 multiple myeloma cell lines against the NCATS MIPE library collection: OCIMY5_PLB cell viability assay (AID 1918988); conditions: OCI-MY5 myeloma viability, ATP luminescence, 48 h; series mostly up to 45.8 µM; note: nearly all actives have a fitted effect of over 65% in size
# Outline: as §1
# [4] = Quantitative High-Throughput drug screen in 47 multiple myeloma cell lines against the NCATS MIPE library collection: OPM1_PLB cell viability assay (AID 1918989); conditions: CellTiter-Glo, 48 h; series mostly up to 45.8 µM; note: nearly all actives have a fitted effect of over 40% in size
# Outline: as §1
# [5] = Quantitative High-Throughput drug screen in 47 multiple myeloma cell lines against the NCATS MIPE library collection: U266_ATCC cell viability assay (AID 1919864); conditions: U266 myeloma viability, CellTiter-Glo ATP luminescence, 48 h; series mostly up to 45.8 µM; note: nearly all actives have a fitted effect of over 35% in size
# Outline: as §1
# [6] = Quantitative High-Throughput drug screen in 47 multiple myeloma cell lines against the NCATS MIPE library collection: KMS34_JCRB cell viability assay (AID 1918985); conditions: KMS34 myeloma viability, CellTiter-Glo ATP luminescence, 48 h; series mostly up to 45.8 µM; note: nearly all actives have a fitted effect of over 40% in size
# Outline: as §1
# [7] = Quantitative High-Throughput drug screen in 47 multiple myeloma cell lines against the NCATS MIPE library collection: VP6_DJ cell viability assay (AID 1919867); conditions: ATP luminescence, 48 h; viability (% of DMSO): at 45.8 µM (top of the series); note: nearly all actives have a fitted effect of over 40% in size
# Outline: as §1
# Potency is the fitted concentration of half-maximal effect.
smiles,measurement,setting,value
Cc1nc(Nc2ncc(C(=O)Nc3c(C)cccc3Cl)s2)cc(N2CCN(CCO)CC2)n1,Potency,[1],"inconclusive: 33.2 µM [cytotoxic, single point]"
same,Potency,[2],"inconclusive: 16.6 µM [cytotoxic, partial curve]"
Cc1cc(=O)c2c(O)c3c(O)cc(=O)c4c3c3c(cc(O)c1c23)C(C)(C)C=4O,Potency,[1],"inconclusive: 16.6 µM [cytotoxic, partial curve, poor fit]"
same,Potency,[3],active: 8.33 µM
same,Potency,[4],"inconclusive: 0.235 µM [cytotoxic, full curve]"
same,Potency,[5],active: 26.4 µM
Cn1cnc2c1c(=O)[nH]c(=O)n2C,Potency,[6],active: 16.6 µM
same,Potency,[4],active: 10.5 µM
same,Potency,[7],"inconclusive: 11.8 µM [cytotoxic, full curve, poor fit]"

# Not a retest: an excerpt of the list.
smiles,measurement,setting,value
Cn1cnc2c1c(=O)[nH]c(=O)n2C,Potency,[6],active: 16.6 µM
same,Potency,[4],active: 10.5 µM
